Results from PubChem BioAssay AID540276 (National Center for Advancing Translational Sciences (NCATS), 2011).
About 5,400 (1.8%) of roughly 300,000 compounds were called active. Inconclusive results, whose numbers are uncertain, are shown with a selection of clear calls. Calls follow the shape of the full dose curve; tested in HEK293 cells. Where the call is inconclusive, the potency comes from a doubtful curve fit.

Experiment: qHTS for inhibitors of binding or entry into cells for Marburg Virus
Details: Marburg virus pseudotyped entry inhibition, cell reporter; activity change, negative = inhibition: at 37.8 µM (top of the series) unless noted
% is scaled to controls: 0 for no effect and ±100 for the full control effect; potency is read from the fitted curve at half-maximal effect.

| SMILES | activity change, negative = inhibition | Potency |
| --- | --- | --- |
| O=C(NCCn1cc(SCc2ccccc2Cl)c2ccccc21)c1cccs1 | inactive: 5.49% [at 46.1 µM] | – |
| Cc1cnc(NC(=O)CSc2nnc3ncccn23)s1 | inactive: -27.4% [at 46.1 µM] | – |
| NNC(=O)c1cc2cc3ccccc3nc2s1 | inactive: 2.83% | – |
| COc1cccc2c1cc1c(=O)n(CC(=O)N3CCN(c4ccc(Cl)cc4)CC3)nc(C)n12 | inactive: -0.747% [at 46.1 µM] | – |
| Fc1ccc(Nc2ncnc3onc(-c4cccc(Cl)c4)c23)c(F)c1 | inactive: -10% [at 46.1 µM] | – |
| CCc1cc2c(=O)c(-c3ccc4c(c3)OCCO4)coc2cc1OC(=O)c1ccco1 | – | inconclusive: 16.4 µM [inhibitor, single point] |
| CN1CCN(/N=C/c2ccc(-c3ccc([N+](=O)[O-])cc3Cl)o2)CC1 | – | inconclusive: 22.4 µM [inhibitor, partial curve, poor fit] |
| COc1ccc(NC(=O)CS(=O)c2ccc(F)cc2)cc1 (stereo unspecified) | inactive: 1.72% [at 46.1 µM] | – |
| COc1cc(/C(C)=N/Nc2ccc(C(=O)O)cc2)cc(OC)c1OC | – | inconclusive: 6.51 µM [activator, single point] |
| Cc1cc2nc(-c3ccc(OCc4ccccc4Cl)cc3)cc(C(F)(F)F)n2n1 | inactive: -18.7% [at 46.1 µM] | – |
| COc1cc(/C=N/NC(=O)c2cccc(S(=O)(=O)N3CCCCC3)c2)cc(Br)c1O | – | inconclusive: 3.16 µM [inhibitor, single point] |
| O=C1N(Cc2ccccc2)c2ccc(Cl)cc2C1(O)c1c[nH]c2ccccc12 (stereo unspecified) | – | inconclusive: 14.1 µM [inhibitor, partial curve, poor fit] |
| CCOC(=O)[C@@H](C)c1nc2ccccc2[nH]c1=O | inactive: 7.51% | – |
| Cc1ccc(C)c(-n2c(C)cc(/C=N/NC(=O)c3c(C)nc4cc(C)ccn34)c2C)c1 | – | inconclusive: 4.11 µM [inhibitor, full curve] |
| O=C(CSc1nnc(SCc2ccccc2)s1)NNC(=S)Nc1ccccc1 | – | inconclusive: 0.708 µM [activator, partial curve, poor fit] |
| COc1ccccc1C=NN=C1c2ccccc2-c2ccccc21 | – | inconclusive: 1.26 µM [inhibitor, single point] |
| COc1cccc(C(=O)N2CCN(CCc3ccncc3)CC2)c1 | inactive: 19.1% [at 46.1 µM] | – |
| Cc1cc(NC(=O)Nc2ccc(Cl)c(Cl)c2)no1 | – | inconclusive: 7.94 µM [inhibitor, partial curve] |
| CC1CCCCN1S(=O)(=O)c1ccc(C(=O)Nc2nnc(-c3ccncc3)o2)cc1 (stereo unspecified) | – | inconclusive: 14.1 µM [inhibitor, single point] |
| O=S(=O)(Nc1cccc(Br)c1)c1cccc2nsnc12 | – | inconclusive: 15.8 µM [inhibitor, single point] |
| S=C(Nc1ccc(Oc2ccccc2)cc1)NC1CCCC1 | inactive: 22.1% | – |

Copied from the list:
Potency, `COc1cc(/C(C)=N/Nc2ccc(C(=O)O)cc2)cc(OC)c1OC` is entered as inconclusive: 6.51 µM [activator, single point]
activity change, negative = inhibition, `COc1cccc2c1cc1c(=O)n(CC(=O)N3CCN(c4ccc(Cl)cc4)CC3)nc(C)n12` is entered as inactive: -0.747% [at 46.1 µM]
